This assay relates to MCF7. The assay is described as follows: Cytotoxicity against human MCF7 cells after 48 hrs by […]. The assay is classed as functional, cell-based. To be noted: MCF7, 48 h.

This passage reports IC50 results from ChEMBL document CHEMBL3632470, “Antimalarial and Antiproliferative Cassane Diterpenes of Caesalpinia sappan” (J Nat Prod, 2015).

The structures appear in SMILES notation.

One may read the IC50 as the midpoint of a concentration-inhibition curve. High values mean a need for much substance, low ones inhibition by little substance. `COc1cccc2c1C(=O)c1c(O)c3c(c(O)c1C2=O)C[C@@](O)(C(=O)CO)C[C@@H]3O[C@H]1C[C@H](N)[C@H](O)[C@H](C)O1` [DOXORUBICIN] showed an IC50 of 830 nM.
